Results deposited as PubChem BioAssay AID1259405 (NCATS, 2018)

Aim: 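Knock-downs that lift recombinant protein yield in hamster ovary cells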 (primary screen)
System: Chinese hamster CHO-K1 ovary cells with stable secreted eGFP expression
Knock-down reagent: single siRNA against mouse genes, 0.8 pmol siRNA per well (2 µl of 400 nM stock)
Timing: 3 days
Detection: 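Percent of the per-plate non-targeting control median for intracellular GFP per well by laser scanning cytometry and for cell viability by ATP luminescence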
Scale: GFP, % of control: higher = more GFP per well, higher productivity; viability (ATP), % of control: higher = more viable cells (more ATP)
Hit rule: 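a knock-down is called active if GFP reaches 120% or more of non-targeting control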
The deposit covers about 50,000 reagents; this is a part drawn at random. About 4,000 of them (8%) were called active. 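Mouse siRNA library applied to hamster cells; one well for each siRNA.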 A number with no mark means an inactive call. The numbers tell different reagents against one gene apart.

gene symbol,reagent,"GFP, % of control","viability (ATP), % of control"
Or4k1,1,99,67.1
Or4k1,2,117,59.8
Or4k1,3,95.7,6.87
Rnf4,1,91.1,75.6
Rnf4,2,77.5,77.7
Rnf4,3,80,95.6
Csta2,1,53,40.3
Csta2,2,90.5,77.2
Csta2,3,87.3,87.4
Apbb1ip,1,31.4,15.8
Apbb1ip,2,83.1,53.1
Apbb1ip,3,65.9,60.2
Sdk1,1,83.6,50.4
Sdk1,2,57.3,67.4
Sdk1,3,92.9,104
Lilra6,1,174 (active),62.8
Lilra6,2,95.8,67.9
Lilra6,3,84.5,82.6
Crlf2,1,80.5,31
Crlf2,2,103,89.7
Crlf2,3,90.5,83.7

In a second layout: 5 of the entries above.
gene symbol	reagent	GFP, % of control	viability (ATP), % of control
Apbb1ip	3	65.9	60.2
Sdk1	1	83.6	50.4
Sdk1	2	57.3	67.4
Sdk1	3	92.9	104
Lilra6	1	174 (active)	62.8

Further results follow.
gene symbol,reagent,"GFP, % of control","viability (ATP), % of control"
Adamts7,1,67.9,82.6
Adamts7,2,99.1,76.3
Adamts7,3,87.9,56.5
Ttpal,1,84.9,62
Ttpal,2,46.9,75.8
Ttpal,3,99.3,113
Entrep2,1,82.9,51.5
Entrep2,2,59.6,67.4
Entrep2,3,75.9,64.9
Or4c35,1,69.2,39.1
Or4c35,2,96.9,66.8
Or4c35,3,53,90.3
Bambi,1,68.5,78.1
Bambi,2,81.4,78
Bambi,3,77.3,88
